In patent US20100179137A1, “PYRIDONE COMPOUND” (priority 2007, published 2010):
Some entries share one result that the patent states for a list of compounds.

Sequences of proteins named here, by UniProt entry; tags and fusion partners are left off. A change or cut given only in a name is not applied to a line headed by its entry.
UniProt P43114: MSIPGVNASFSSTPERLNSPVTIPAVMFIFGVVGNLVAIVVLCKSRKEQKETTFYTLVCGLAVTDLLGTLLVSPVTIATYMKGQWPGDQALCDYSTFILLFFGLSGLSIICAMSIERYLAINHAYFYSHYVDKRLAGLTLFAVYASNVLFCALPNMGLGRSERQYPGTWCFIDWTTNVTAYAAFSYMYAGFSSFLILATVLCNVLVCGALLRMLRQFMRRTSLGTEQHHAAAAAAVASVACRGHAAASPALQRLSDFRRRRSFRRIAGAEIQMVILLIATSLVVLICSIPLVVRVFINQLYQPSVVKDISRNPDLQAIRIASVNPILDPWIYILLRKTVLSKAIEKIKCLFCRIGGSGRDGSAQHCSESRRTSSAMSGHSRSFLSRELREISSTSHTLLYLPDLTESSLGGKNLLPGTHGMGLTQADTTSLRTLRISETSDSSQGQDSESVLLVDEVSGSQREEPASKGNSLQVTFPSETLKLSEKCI

How the values were obtained:
[1] = test system: hindlimb blood flow in anesthetized rat; test: Hindlimb blood flow increasing action in anesthetized rat; assay type: in vivo; conditions: orally administered at 1 mg/kg, measured after 2 hours, Wistar male rats
Description: Wistar male rats were used. The test compound was orally administered, and after 2 hours, the hindlimb blood was measured using a laser blood flow imaging apparatus (PIM II, manufactured by Integral Corporation). At 20 minutes before the measurement, 60 mg/kg of pentobarbital was intraperitoneally administered to conduct anesthesia.

rat EP4 receptor = biological target: T1, rat EP4 receptor (Rattus norvegicus, UniProt P43114); test: EP4 receptor agonistic action in rat (cAMP increasing action in rat EP4 receptor expression CHO-K1 cells); assay type: cell-based; conditions: test compound at 10 μM; cAMP increasing action by 1 μM PGE2 taken as 100%
T1 construct: expressed in transfected cells; host or cells: HEK293 cells, transient transfection with Lipofectamine 2000; membrane fraction used

Structure (SMILES) | blood flow increasing action [1] | cAMP increasing action (rat EP4 receptor)
COc1cccc(/C=C/c2c(Cl)cc(Cl)c(=O)n2CCc2ccc(C(=O)O)cc2)c1 [Example 5, 4-(2-{3,5-dichloro-6-[(E)-2-(3-methoxyphenyl)vinyl]-2-oxopyridin-1(2H)-yl}ethyl)benzoic acid] | ≥ 120% | –
O=C(O)c1ccc(CCn2c(CSc3cccc(OC(F)(F)F)c3)c(Cl)cc(Cl)c2=O)cc1 [Example 194] | ≥ 120% | –
O=C(O)c1ccc(CCn2c(CCc3cccc(OC(F)(F)F)c3)c(Cl)cc(Cl)c2=O)cc1 [Example 200] | ≥ 120% | –
COc1cccc(OCc2c(Br)cc(Br)c(=O)n2CCc2ccc(C(=O)O)cc2)c1 [Example 2, 4-(2-{3,5-dibromo-6-[(3-methoxyphenoxy)methyl]-2-oxopyridin-1(2H)-yl}ethyl)benzoic acid] | – | ≥ 30%
COc1cccc(/C=C/c2c(Br)cc(Br)c(=O)n2CCc2ccc(C(=O)O)cc2)c1 [Example 4, 4-(2-{3,5-dibromo-6-[(E)-2-(3-methoxyphenyl)vinyl]-2-oxopyridin-1(2H)-yl}ethyl)benzoic acid] | – | ≥ 30%
CCc1cccc(OCc2c(Cl)cc(Cl)c(=O)n2CCc2ccc(C(=O)O)cc2)c1 [Example 161] | ≥ 120% | –
